The other results are listed elsewhere or left out.
What was measured:
Experiment in all cases: log2 fold change, soluble protein after heating vs DMSO (PISA); higher = thermal stabilisation; K562 cells, 10 uM, 30 min; active = over 0.2 and 3.5 SD of the protein, either way, in both replicates (recomputed)
[1] = compound: C1=CC=C(C=C1)[C@H](COC2=CC3=C(C=C2)NC(=O)N3)NC(=O)C4=CC=CN(C4=O)CC5=CC(=C(C=C5)F)F
Procedure, shortened: (§1)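 K562 cells (2×10^6 cells/mL) were treated with 10 μM compound for 30 min, and aliquots were heated for 3 min over 48°C-58°C. Pooled aliquots were extracted in PBS with 0.5% NP-40 at 4°C, and the supernatant after 21,000xg for 90 min was measured by TMTpro 16plex LC-MS/MS with channel sums equalised. Reported thermal stability, relative to control samples and from duplicates, is a log2 fold change.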

By UniProt entry, the sequences of proteins in these tests, tags left out. Where a name states a change or a piece, a line headed by the entry shows the natural chain unless it says otherwise.
UniProt Q9BXJ8: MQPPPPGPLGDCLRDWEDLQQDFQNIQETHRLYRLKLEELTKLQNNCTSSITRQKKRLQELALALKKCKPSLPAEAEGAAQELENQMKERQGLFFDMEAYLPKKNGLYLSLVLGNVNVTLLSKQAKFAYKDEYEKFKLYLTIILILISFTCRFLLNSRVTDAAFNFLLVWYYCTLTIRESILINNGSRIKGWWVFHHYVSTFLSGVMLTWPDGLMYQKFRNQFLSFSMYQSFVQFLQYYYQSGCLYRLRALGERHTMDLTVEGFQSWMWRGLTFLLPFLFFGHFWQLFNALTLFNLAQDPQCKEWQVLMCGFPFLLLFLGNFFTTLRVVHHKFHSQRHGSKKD
UniProt Q9Y3Q3: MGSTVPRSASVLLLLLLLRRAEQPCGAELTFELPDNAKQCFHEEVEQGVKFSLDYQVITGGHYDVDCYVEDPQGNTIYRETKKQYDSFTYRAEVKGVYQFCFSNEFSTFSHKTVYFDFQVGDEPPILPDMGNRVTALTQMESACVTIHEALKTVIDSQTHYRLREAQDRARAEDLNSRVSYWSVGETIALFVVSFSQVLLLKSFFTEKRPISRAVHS
UniProt O00206, whole entry, looked up: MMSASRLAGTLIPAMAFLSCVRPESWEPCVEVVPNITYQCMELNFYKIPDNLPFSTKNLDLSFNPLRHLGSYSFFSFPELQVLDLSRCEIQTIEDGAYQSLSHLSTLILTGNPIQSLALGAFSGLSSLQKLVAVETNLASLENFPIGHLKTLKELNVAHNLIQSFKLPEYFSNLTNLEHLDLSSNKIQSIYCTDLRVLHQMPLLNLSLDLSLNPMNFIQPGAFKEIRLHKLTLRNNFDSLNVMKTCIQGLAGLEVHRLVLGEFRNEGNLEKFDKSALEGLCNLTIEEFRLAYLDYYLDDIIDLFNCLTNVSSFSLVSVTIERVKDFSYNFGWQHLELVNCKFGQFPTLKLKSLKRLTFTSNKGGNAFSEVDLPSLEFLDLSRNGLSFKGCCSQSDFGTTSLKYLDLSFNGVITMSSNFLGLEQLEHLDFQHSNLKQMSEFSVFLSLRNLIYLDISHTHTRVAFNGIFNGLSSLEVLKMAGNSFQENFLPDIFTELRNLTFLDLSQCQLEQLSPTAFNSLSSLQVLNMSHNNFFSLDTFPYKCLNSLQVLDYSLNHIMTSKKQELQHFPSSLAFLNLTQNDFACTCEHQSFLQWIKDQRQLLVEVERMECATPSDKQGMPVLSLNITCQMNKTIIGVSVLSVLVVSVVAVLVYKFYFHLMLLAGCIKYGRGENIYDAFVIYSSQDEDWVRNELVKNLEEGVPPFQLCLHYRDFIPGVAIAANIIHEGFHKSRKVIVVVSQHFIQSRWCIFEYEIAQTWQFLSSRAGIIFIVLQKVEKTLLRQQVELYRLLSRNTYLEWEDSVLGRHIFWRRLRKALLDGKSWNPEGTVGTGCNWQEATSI
UniProt Q9NZR1: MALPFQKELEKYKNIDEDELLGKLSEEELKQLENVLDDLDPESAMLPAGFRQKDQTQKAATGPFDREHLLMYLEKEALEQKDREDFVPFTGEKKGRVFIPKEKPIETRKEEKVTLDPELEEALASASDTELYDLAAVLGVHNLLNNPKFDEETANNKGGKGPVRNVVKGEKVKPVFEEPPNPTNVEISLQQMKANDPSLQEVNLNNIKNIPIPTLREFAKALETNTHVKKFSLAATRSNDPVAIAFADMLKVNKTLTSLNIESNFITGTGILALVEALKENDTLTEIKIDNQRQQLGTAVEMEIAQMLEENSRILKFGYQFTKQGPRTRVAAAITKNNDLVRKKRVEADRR
UniProt P55061, whole entry, looked up: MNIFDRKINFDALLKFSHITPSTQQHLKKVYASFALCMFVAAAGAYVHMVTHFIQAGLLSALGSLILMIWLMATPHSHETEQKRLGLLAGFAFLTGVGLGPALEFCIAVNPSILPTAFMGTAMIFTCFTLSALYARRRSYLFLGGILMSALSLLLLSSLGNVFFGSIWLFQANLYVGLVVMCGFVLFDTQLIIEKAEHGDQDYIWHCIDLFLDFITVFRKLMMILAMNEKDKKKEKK
UniProt Q9H0R3: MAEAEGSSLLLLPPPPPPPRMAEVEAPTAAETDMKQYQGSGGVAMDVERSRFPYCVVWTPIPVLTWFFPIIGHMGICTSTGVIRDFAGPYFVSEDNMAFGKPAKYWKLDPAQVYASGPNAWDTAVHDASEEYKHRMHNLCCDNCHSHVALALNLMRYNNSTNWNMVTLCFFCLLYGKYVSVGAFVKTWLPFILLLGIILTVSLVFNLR
UniProt Q9HD45: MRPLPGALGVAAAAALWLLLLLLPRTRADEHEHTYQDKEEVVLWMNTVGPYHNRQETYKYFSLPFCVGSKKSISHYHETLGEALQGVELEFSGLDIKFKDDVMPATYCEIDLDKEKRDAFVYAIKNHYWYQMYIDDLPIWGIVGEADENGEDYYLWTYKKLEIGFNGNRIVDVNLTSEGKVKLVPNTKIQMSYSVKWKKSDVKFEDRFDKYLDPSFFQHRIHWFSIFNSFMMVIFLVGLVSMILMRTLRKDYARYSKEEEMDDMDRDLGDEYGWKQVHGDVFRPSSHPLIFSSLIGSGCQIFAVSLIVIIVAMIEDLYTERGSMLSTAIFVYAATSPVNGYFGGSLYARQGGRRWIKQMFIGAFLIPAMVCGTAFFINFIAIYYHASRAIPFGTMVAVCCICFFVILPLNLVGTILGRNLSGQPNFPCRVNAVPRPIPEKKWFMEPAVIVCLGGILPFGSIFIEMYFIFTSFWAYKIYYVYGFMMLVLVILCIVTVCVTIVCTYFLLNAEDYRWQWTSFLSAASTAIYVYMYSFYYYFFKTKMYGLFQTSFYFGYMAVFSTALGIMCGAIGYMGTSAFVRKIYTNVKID
UniProt Q6NUQ4: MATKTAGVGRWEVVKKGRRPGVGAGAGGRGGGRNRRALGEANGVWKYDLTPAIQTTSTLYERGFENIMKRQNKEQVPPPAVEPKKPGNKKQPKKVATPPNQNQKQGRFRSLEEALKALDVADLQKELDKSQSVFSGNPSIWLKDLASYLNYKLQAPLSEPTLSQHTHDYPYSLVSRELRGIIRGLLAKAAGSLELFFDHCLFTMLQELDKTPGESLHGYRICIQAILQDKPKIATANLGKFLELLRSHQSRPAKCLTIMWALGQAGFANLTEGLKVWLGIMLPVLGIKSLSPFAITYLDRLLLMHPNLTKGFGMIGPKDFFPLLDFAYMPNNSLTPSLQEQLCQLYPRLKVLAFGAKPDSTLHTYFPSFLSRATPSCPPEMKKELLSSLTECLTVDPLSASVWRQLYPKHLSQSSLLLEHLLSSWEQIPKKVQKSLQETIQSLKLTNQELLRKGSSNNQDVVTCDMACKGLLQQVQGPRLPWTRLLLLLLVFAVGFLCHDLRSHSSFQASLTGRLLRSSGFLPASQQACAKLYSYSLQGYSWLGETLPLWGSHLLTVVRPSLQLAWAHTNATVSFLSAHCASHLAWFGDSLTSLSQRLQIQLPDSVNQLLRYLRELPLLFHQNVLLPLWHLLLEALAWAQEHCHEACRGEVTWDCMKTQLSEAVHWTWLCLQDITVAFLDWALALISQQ
UniProt P42166: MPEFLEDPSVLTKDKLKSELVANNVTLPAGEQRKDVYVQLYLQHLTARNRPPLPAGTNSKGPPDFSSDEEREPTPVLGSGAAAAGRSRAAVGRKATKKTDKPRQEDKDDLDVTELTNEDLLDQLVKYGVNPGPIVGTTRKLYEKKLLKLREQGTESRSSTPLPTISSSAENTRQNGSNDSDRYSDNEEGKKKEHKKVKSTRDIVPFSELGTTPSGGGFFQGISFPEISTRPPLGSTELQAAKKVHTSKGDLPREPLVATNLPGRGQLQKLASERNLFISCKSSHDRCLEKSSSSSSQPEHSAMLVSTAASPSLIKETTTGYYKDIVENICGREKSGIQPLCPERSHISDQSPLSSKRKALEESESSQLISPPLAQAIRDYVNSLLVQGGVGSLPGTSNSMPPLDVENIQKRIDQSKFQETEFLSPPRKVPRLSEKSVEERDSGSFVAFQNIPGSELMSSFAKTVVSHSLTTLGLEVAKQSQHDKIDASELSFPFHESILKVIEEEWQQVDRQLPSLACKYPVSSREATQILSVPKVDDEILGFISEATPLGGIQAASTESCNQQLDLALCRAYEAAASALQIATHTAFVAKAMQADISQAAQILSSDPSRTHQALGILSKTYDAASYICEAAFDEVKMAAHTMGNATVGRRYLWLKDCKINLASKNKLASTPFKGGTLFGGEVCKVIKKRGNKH
UniProt Q9NVA4: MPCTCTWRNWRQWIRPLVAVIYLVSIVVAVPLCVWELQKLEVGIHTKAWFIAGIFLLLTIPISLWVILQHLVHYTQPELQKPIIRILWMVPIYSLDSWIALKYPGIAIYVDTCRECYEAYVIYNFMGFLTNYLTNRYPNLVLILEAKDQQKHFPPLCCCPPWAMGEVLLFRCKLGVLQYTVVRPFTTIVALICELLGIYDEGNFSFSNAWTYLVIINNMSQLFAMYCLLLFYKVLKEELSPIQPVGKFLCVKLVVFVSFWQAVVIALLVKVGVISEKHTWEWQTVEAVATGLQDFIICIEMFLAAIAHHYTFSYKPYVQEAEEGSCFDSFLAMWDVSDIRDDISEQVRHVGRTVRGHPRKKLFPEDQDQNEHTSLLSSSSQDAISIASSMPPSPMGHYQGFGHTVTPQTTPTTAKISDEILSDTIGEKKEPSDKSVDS
UniProt Q53S58: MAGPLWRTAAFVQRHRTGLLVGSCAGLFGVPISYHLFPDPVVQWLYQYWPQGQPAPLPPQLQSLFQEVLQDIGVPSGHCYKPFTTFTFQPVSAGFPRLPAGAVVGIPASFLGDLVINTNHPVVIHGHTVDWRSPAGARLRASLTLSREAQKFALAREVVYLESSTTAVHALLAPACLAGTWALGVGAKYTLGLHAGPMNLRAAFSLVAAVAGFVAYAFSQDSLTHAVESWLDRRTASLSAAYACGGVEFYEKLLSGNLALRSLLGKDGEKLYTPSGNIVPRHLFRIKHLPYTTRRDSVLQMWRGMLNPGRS
UniProt Q9H7F4: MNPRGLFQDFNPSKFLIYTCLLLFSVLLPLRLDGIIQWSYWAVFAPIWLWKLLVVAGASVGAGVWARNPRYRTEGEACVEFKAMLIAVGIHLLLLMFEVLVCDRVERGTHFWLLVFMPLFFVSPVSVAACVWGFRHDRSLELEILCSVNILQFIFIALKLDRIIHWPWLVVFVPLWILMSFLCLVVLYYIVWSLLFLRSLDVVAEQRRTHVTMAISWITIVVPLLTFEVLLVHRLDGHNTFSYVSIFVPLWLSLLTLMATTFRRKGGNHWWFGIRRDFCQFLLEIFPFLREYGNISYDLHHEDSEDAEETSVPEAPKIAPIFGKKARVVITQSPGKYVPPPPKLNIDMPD
UniProt Q8TDI8: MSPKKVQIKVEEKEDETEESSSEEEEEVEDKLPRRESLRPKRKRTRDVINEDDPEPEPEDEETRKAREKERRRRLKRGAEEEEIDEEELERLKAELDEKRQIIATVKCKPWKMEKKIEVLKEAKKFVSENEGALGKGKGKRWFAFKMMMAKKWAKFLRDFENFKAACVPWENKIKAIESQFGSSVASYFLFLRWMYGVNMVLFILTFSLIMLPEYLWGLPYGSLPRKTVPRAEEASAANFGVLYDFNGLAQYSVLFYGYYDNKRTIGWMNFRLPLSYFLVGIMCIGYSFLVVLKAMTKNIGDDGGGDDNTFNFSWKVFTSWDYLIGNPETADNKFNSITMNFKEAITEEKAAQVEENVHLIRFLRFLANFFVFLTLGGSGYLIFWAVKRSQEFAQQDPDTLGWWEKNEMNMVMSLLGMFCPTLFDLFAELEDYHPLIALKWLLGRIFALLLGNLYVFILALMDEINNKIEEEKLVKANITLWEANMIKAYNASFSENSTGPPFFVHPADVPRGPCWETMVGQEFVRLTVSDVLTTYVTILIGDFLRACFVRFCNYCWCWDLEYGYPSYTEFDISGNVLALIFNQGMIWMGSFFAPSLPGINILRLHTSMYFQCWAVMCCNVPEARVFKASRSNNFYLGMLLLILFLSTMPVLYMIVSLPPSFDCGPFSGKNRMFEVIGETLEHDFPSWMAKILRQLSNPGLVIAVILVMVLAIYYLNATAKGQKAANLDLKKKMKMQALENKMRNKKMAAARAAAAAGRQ
UniProt Q9NX61: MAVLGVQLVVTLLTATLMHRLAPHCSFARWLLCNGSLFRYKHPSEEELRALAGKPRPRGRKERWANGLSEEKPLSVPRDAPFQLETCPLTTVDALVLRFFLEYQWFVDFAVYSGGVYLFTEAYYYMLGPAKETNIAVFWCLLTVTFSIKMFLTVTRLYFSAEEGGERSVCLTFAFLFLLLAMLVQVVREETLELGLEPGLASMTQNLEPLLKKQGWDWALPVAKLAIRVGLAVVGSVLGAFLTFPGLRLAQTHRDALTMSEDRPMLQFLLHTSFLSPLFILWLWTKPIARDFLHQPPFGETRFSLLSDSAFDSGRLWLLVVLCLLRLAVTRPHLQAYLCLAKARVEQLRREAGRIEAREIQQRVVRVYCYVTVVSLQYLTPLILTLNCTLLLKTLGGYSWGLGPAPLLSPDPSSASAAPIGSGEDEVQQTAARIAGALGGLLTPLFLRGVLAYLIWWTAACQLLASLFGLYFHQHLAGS

[2] = compound: CC1=C(SC2=C1C(=N[C@H](C3=NN=C(N32)C)CC(=O)N)C4=CC=C(C=C4)Cl)C
Procedure, shortened: as §1

[3] = compound: CC1=C2C(=CC=C1)N=C(N(C2=O)C3=CC=CC=C3C)CN4C=NC5=C(N=CN=C54)N
Procedure, shortened: as §1

[4] = compound: Cc1sc2c(c1C)C(c1ccc(Cl)cc1)=N[C@@H](CC(=O)OC(C)(C)C)c1nnc(C)n1-2
Procedure, shortened: as §1

[5] = compound: c1ccc([C@@H]2C[C@H]2NC2CCNCC2)cc1
Procedure, shortened: as §1

Measured: log2 fold change

TNFRSF10A (UniProt O00220)
inactive: [1] 0.033 | [2] 0.006 | [3] -0.058 | [4] 0.024 | [5] 0.01

TMEM120A (UniProt Q9BXJ8)
inactive: [1] -0.126 | [2] 0.056 | [3] 0.012 | [4] -0.11 | [5] -0.049

TMED3 (UniProt Q9Y3Q3)
inactive: [1] 0.029 | [2] 0.04 | [3] 0.1 | [4] -0.043 | [5] 0.035

TLR4 (UniProt O00206)
inactive: [1] 0.096 | [2] 0.003 | [3] 0.212 | [4] -0.055 | [5] 0.057

TMOD2 (UniProt Q9NZR1)
inactive: [1] -0.101 | [2] 0.12 | [3] -0.058 | [4] -0.087 | [5] -0.125

TMEM181 (UniProt Q9P2C4)
inactive: [1] -0.05 | [2] -0.076 | [3] 0.085 | [4] 0.075 | [5] 0.015

TMBIM6 isoform 2 (UniProt P55061)
inactive: [1] -0.037 | [2] -0.022 | [3] 0.041 | [4] -0.03 | [5] 0.041

TMEM259 (UniProt Q4ZIN3)
inactive: [1] 0.017 | [2] -0.005 | [3] 0.052 | [4] 0.015 | [5] 0.002

TMEM222 (UniProt Q9H0R3)
inactive: [1] -0.038 | [2] 0.116 | [3] -0.085 | [4] -0.026 | [5] 0.093

2 entries picked at random from those above, as already listed:
TMED3 (UniProt Q9Y3Q3)
inactive: [1] 0.029 | [2] 0.04 | [3] 0.1 | [4] -0.043 | [5] 0.035

TMBIM6 isoform 2 (UniProt P55061)
inactive: [1] -0.037 | [2] -0.022 | [3] 0.041 | [4] -0.03 | [5] 0.041

Next results follow:

TMEM189-UBE2V1 (UniProt I3L0A0)
inactive: [1] -0.047 | [2] 0.02 | [3] 0.102 | [4] -0.02 | [5] 0.048

TMED2 (UniProt Q15363)
inactive: [1] 0.04 | [2] 0.027 | [3] -0.005 | [4] -0.024 | [5] 0.022

TM9SF3 (UniProt Q9HD45)
inactive: [1] 0.002 | [2] 0.05 | [3] 0.02 | [4] 0.013 | [5] -0.041

TMEM33 (UniProt P57088)
inactive: [1] 0.002 | [2] 0.057 | [3] 0.029 | [4] -0.05 | [5] 0.034

TMEM214 (UniProt Q6NUQ4)
inactive: [1] 0.023 | [2] 0.044 | [3] 0.005 | [4] -0.002 | [5] -0.024

TMEM208 (UniProt Q9BTX3)
inactive: [1] -0.101 | [2] 0.02 | [3] 0.088 | [4] -0.14 | [5] 0.031

TMEM101 (UniProt Q96IK0)
inactive: [1] -0.09 | [2] 0.077 | [3] 0.087 | [4] -0.029 | [5] 0.034

TMPO (UniProt P42166)
inactive: [1] -0.025 | [2] -0.024 | [3] 0.076 | [4] 0.038 | [5] 0.008

TMEM184C (UniProt Q9NVA4)
inactive: [1] 0 | [2] 0.078 | [3] 0.022 | [4] 0.045 | [5] 0.22

TMF1 (UniProt P82094)
inactive: [1] 0.036 | [2] 0.028 | [3] -0.001 | [4] 0.02 | [5] 0.034

TMEM177 (UniProt Q53S58)
inactive: [1] 0.036 | [2] -0.01 | [3] -0.164 | [4] -0.001 | [5] -0.002

TMPO isoform 2 (UniProt P42167)
inactive: [1] -0.096 | [2] -0.104 | [3] 0.116 | [4] 0.041 | [5] 0.013

TMEM185B (UniProt Q9H7F4)
inactive: [1] 0.004 | [2] -0.004 | [3] 0.035 | [4] -0.004 | [5] -0.02

TMC1 (UniProt Q8TDI8)
inactive: [1] -0.147 | [2] 0.095 | [3] 0.224 | [4] 0.05 | [5] 0.017

TMEM161A (UniProt Q9NX61)
inactive: [1] -0.055 | [2] 0.017 | [3] 0.098 | [4] -0.133 | [5] 0.003

From the supplement of paper PMC10849652
